# From paper PMC3233689 (The Journal of neuroscience : the official journal of the …, 2011)
# Key:
# RDL receptor F206-FPhe = settings: GABA
# RDL receptor F206-F3Phe = settings: GABA
compound,measurement,setting,value
NCCCC(=O)O [GABA],EC50,RDL receptor F206-FPhe,65 µM
same,Log EC50 (M),RDL receptor F206-FPhe; printed as negative log,-4.190 ± 0.05 M
same,EC50,RDL receptor F206-F3Phe,1020 µM
same,Log EC50 (M),RDL receptor F206-F3Phe; printed as negative log,-2.990 ± 0.04 M
same,increase in EC50,RDL receptor Y254-FPhe,~1.5 fold
same,EC50,"RDL receptor Y254-FPhe; GABA, Y254-FPhe",110 µM
same,Log EC50 (M),"RDL receptor Y254-FPhe; GABA, Y254-FPhe, printed as negative log",-3.995 ± 0.07 M
same,increase in EC50,RDL receptor Y254F2-Phe,~10 fold
same,EC50,"RDL receptor Y254F2-Phe; GABA, Y254F2-Phe",733 µM
same,increase in EC50,RDL receptor Y254F3-Phe,~33 fold
same,EC50,"RDL receptor Y254F3-Phe; GABA, Y254F3-Phe",2520 µM
same,Log EC50 (M),"RDL receptor F146F3Phe; GABA, F146F3Phe, printed as negative log",-4.084 ± 0.15 M
same,increase in GABA EC50,"RDL receptor F146F3Phe; Phe146 substituted with F3-Phe, compared to WT",< 4 fold
